From patent publication US20220023346A1
These are yes or no findings as the source states them, for the method shown. Some binding calls cover weakened binding; strength is not graded here.

Sequences of proteins named here, by UniProt entry; tags and fusion partners are left off. Residues count along the entry.
UniProt Q9NYJ7, residues 27-492: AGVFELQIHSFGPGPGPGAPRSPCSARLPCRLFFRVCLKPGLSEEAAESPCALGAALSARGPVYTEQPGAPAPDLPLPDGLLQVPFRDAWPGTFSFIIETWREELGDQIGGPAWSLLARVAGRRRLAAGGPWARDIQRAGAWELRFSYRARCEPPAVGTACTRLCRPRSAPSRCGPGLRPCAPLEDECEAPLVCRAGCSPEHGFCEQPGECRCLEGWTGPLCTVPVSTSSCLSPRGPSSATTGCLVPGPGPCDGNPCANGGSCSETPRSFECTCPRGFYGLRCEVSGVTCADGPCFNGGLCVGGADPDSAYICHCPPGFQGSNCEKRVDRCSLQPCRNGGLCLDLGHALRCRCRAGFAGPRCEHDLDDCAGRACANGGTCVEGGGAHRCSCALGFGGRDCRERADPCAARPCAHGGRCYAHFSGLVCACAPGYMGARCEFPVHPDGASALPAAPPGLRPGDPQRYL

Key:
[1] = molecular target: Flag tagged recombinant DLL3 (Adipogen) (UniProt Q9NYJ7); assay: flow cytometry; staining of CAR T cells with Flag tagged recombinant DLL3 and PE anti-Flag antibodies (FIG. 5B)
[2] = molecular target: Flag tagged recombinant DLL3 (Adipogen) (UniProt Q9NYJ7); assay: flow cytometry; staining of CAR T cells with soluble DLL3 (FIG. 2A bottom panels, FIG. 2E)
[3] = molecular target: Flag tagged recombinant DLL3 (Adipogen) (UniProt Q9NYJ7); assay: flow cytometry; CAR T cells incubated with 1 ug/ml Flag tagged recombinant DLL3, then PE anti-Flag antibodies

Measured: binding

B1: DLL3 CAR 10G1-K, conventional (comprising wildtype CD3ζ ITAM-containing domain), expressed on primary human T cells (protein, not shown: large carriers)
chain: EVQLLESGGGLVQPGGSLRLSCAASGFTFSSYAMNWVRQAPGKGLEWVSTISGSGGSTYYADSVKGRFTISRDNSKNTLYLQMNSLRAEDTAVFYCAIDPEYYDILTGGDYWGQGTLVTVSSGGGGSGGGGSGGGGSGGGGSDIQMTQSPSAMSASVGDRVTITCRASQGISNYLAWFQQKPGKVPKRLIYAASSLQSGVPSRFSGSGSGTEFTLTISSLQPEDFATYFCLQHDSFPLTFGGGTKVEIK
binds: [1] | [2] | [3]
